The list shows a part of the results.

This test deals with T1, OsSMF1 (Oryza sativa, UniProt Q6ZLB0 1-436).
T1 sequence: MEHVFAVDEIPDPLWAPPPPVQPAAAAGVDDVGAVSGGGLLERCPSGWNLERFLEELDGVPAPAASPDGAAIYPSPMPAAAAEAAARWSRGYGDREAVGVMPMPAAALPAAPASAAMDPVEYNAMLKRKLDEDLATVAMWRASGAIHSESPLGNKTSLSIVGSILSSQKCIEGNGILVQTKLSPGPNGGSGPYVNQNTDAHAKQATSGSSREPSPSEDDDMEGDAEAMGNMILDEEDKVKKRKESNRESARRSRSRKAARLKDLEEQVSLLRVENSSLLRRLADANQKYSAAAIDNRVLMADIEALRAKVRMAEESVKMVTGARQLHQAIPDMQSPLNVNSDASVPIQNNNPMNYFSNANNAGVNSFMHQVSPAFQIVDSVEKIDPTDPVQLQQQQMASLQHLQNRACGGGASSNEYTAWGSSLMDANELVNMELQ
Briefly: protein-binding microarray (RPBM); PBS, 2% BSA, 51.3 ng/ul salmon testes DNA, 50 uM zinc acetate, 200 nM TF, 25 C, 1 h; high values mean tight binding. The following applies: protein: recombinant; tags: N-terminal polyhistidine and DsRed monomer fusion (pET32a); chain copies: 2; label: CyDye5-dUTP incorporated in the synthesized complementary strand; 3' TTTTT single-stranded linker to array surface; dsDNA, one strand shown. An outline of the steps:
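For the binding signal, per-feature fluorescence intensity was read in arbitrary units on an Axon 4000B scanner. Before scanning, a 2% BSA-blocked custom Agilent array made double-stranded with Cy5-dUTP was washed after 1 h at 25 °C with 200 nM protein and 50 µM zinc acetate. The proteins were Ni–NTA-purified transcription factors with N-terminal polyhistidine and DsRed fusions, expressed in E. coli BL21-CodonPlus.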
For the sequence “AAGGATGTGCCGGTTGGGAACTCGGTGCTTGTGATGTATGCGGAGTCACCTAGTGCAG”, the binding signal was 3170 fluorescence intensity (a.u.). To “CGAGGCTCTAGCTAGCTAGGACTCCACAGGAGGAGGAGGACGGAGTCACCTAGTGCAG” belongs 34600 fluorescence intensity (a.u.); to “AGTGGCTTGCAAGAGGAGATGGAGAGGAAGCTGTATGAGCCGGAGTCACCTAGTGCAG”, 24100 fluorescence intensity (a.u.). As for “CGGCCGGAGCAGCGGCGCGCTGAACGGCGGCAATCCGCCGCGGAGTCACCTAGTGCAG”, the binding signal was 3170 fluorescence intensity (a.u.).

“AGACTTTATGATGTTTGTAAGACGTGGATCTGTATGTCAACGGAGTCACCTAGTGCAG”: the binding signal is 4910 fluorescence intensity (a.u.). Consider “CGATACCATTAACAATGTCAGCAGGTCTATTGTTTGGTAGCGGAGTCACCTAGTGCAG”, for which the binding signal is 4020 fluorescence intensity (a.u.). To “CCAAGGTAAGATGAAGCAGCAGCATTTGCATTAAACTATCCGGAGTCACCTAGTGCAG” belongs 60100 fluorescence intensity (a.u.); to “CGTGATCTCGTCGGTCTCGTCACGCACGCCCGCTCCGCTCCGGAGTCACCTAGTGCAG”, 3290 fluorescence intensity (a.u.).

In the case of “GCCTGCCCAGATTCGTTGTACTATGAAATGTCACATCCTACGGAGTCACCTAGTGCAG”, the binding signal was 3160 fluorescence intensity (a.u.). For “AAGAGGAATTAATGCAGGATTGCCTGTCCTGTCATCCTAGCGGAGTCACCTAGTGCAG”, the binding signal was 4780 fluorescence intensity (a.u.). In the case of “GACTTCGCGGGACGAATATTCATCGTCACGGTTGGTGTTCCGGAGTCACCTAGTGCAG”, the binding signal was 3170 fluorescence intensity (a.u.). The value for “ATCGAGCTATCATGTAAGTGTCACGTCAATGTGACGTGGGCGGAGTCACCTAGTGCAG” was 20700 fluorescence intensity (a.u.); that for “TCGGAGACCACCTCCACCTCCACCTCCTCCACCACCTTCGCGGAGTCACCTAGTGCAG” was 3910 fluorescence intensity (a.u.).

Consider “TGGGAAACAGGACTCTGTTTTCTCTTGCTCTTGTACCAAACGGAGTCACCTAGTGCAG”, for which the binding signal was 3190 fluorescence intensity (a.u.).

As to “AAGGAGTTGTACCTCCCAATCCTATCTGCCAAATCATCCCCGGAGTCACCTAGTGCAG”, the binding signal is 3740 fluorescence intensity (a.u.). The value for “GTGCTAACTGCCTAGCACACGTGTTTATAGAGGTTGTCTGCGGAGTCACCTAGTGCAG” was 5800 fluorescence intensity (a.u.); that for “TTGTTTCCGCGCAAGTTGCAGTGTCACTCACTGATCGATCCGGAGTCACCTAGTGCAG” was 3340 fluorescence intensity (a.u.). The value for “GTGATACGTGGGAGCGGCACCACGCCCATCCGCATCACGCCGGAGTCACCTAGTGCAG” was 3460 fluorescence intensity (a.u.); that for “GCTGGTAAAGCGGTGCGCCGGTGCCGCCACGTCCTCGCACCGGAGTCACCTAGTGCAG” was 15100 fluorescence intensity (a.u.).

With “AGCAGGAGAAGGGACCGAGAGAAGAGTCGCAGAGAGAGAGCGGAGTCACCTAGTGCAG”, the binding signal is 3660 fluorescence intensity (a.u.). Take “CCGCATGGACGCGGTCCACGCACCTGGCGGTGCACCTCCTCGGAGTCACCTAGTGCAG”: the binding signal is 3730 fluorescence intensity (a.u.).

Take “AACAGTGAGCATTGTGCGTGCGAAAACCTGACGTCTTCTGCGGAGTCACCTAGTGCAG”: the binding signal is 3180 fluorescence intensity (a.u.).

For the sequence “TTGACCACTCGTCTTATTCAAATAATTTGTGCAAATATAACGGAGTCACCTAGTGCAG”, the binding signal is 17700 fluorescence intensity (a.u.). The value for “AAACACACGTCCCCGACACCCACGCTGCCGCGACCTTCTTCGGAGTCACCTAGTGCAG” was 3610 fluorescence intensity (a.u.). To “ACATAACTTAGTTGCTTAGTTAGAGTTCACCCTCACCAAGCGGAGTCACCTAGTGCAG” belongs 18200 fluorescence intensity (a.u.); to “ACACCGTCGTGGTGTACGAGCGCCACGACGCCATGCGCGCCGGAGTCACCTAGTGCAG”, 4980 fluorescence intensity (a.u.).

Take “GCCGCTGCACCGCCCCAGCCTCCTCCTCCCCACCGATGCCCGGAGTCACCTAGTGCAG”: the binding signal was 3150 fluorescence intensity (a.u.). As for “TGGGTATGTGATATGTGTGCGTGTGCTTGTTCCGTGTAATCGGAGTCACCTAGTGCAG”, the binding signal was 3290 fluorescence intensity (a.u.). As for “AACGACGGCGAATTCTACCTCCCCGGGTATCTGGACCTCGCGGAGTCACCTAGTGCAG”, the binding signal was 42900 fluorescence intensity (a.u.). The value for “GATTGAATCATATCGTATCCTTTGAAATTCCTATGGAATGCGGAGTCACCTAGTGCAG” was 4120 fluorescence intensity (a.u.); that for “AATACCATTATTATTTATGAGGATAATTGTGTACATCAGTCGGAGTCACCTAGTGCAG” was 4360 fluorescence intensity (a.u.).

Take “CACTCTCTCCGGAAGGCCCAAACCGCAGCTCAACGCTTCTCGGAGTCACCTAGTGCAG”: the binding signal is 25500 fluorescence intensity (a.u.). The value for “GCGCCGTTGTTCTTCCTGCCACATCCATCCTGGTGAGCACCGGAGTCACCTAGTGCAG” was 3470 fluorescence intensity (a.u.); that for “GACATGAAATTAAAATCCTTAGACACATCACCGTTTGGCACGGAGTCACCTAGTGCAG” was 6170 fluorescence intensity (a.u.); that for “TCTCAGATGTCATGCTGGTGGCTTCACCGCCACGGCCGCGCGGAGTCACCTAGTGCAG” was 3170 fluorescence intensity (a.u.). As to “TGATTTTGTTTTAATACATGCAATCTTTCGATCCAATGGCCGGAGTCACCTAGTGCAG”, the binding signal was 24000 fluorescence intensity (a.u.). The value for “GGAGGGAGTAGTAGCTAGCCGCCGTCACTTCCCAGTTCACCGGAGTCACCTAGTGCAG” was 3420 fluorescence intensity (a.u.); that for “ATATTTGCATATTTCTGGAATAAAGCCGCAGTGTCATGCACGGAGTCACCTAGTGCAG” was 3310 fluorescence intensity (a.u.); that for “AATAAGTGCAGTTGTGGGAATCCGTGTTGAACGTTTGACCCGGAGTCACCTAGTGCAG” was 14300 fluorescence intensity (a.u.). To “GGTGAAGAAAGAAGTTGTGGCTGACATGTGAGTCCAATGTCGGAGTCACCTAGTGCAG” belongs 3220 fluorescence intensity (a.u.); to “GAACCGGTCGCCGTCCACCGCTGCATCCATCCGTCCATGTCGGAGTCACCTAGTGCAG”, 3210 fluorescence intensity (a.u.). The value for “GCCGCCCACCGCCTAGTCACCGCCTCCCACGATCATCCCTCGGAGTCACCTAGTGCAG” was 5010 fluorescence intensity (a.u.).
